Measured values reported in patent US20050209278A1, “Piperidinyl- and piperazinyl-sulfonylmethyl hydroxamic acids and their use as protease inhibitors” (priority 2002, published 2005).
pKi: −log10 of the molar value. The match of structure and compound is tentative.

Amino acid sequences for entries named in this document (tags omitted). Residues count along the entry.
UniProt P14780, 107-707 limits assumed: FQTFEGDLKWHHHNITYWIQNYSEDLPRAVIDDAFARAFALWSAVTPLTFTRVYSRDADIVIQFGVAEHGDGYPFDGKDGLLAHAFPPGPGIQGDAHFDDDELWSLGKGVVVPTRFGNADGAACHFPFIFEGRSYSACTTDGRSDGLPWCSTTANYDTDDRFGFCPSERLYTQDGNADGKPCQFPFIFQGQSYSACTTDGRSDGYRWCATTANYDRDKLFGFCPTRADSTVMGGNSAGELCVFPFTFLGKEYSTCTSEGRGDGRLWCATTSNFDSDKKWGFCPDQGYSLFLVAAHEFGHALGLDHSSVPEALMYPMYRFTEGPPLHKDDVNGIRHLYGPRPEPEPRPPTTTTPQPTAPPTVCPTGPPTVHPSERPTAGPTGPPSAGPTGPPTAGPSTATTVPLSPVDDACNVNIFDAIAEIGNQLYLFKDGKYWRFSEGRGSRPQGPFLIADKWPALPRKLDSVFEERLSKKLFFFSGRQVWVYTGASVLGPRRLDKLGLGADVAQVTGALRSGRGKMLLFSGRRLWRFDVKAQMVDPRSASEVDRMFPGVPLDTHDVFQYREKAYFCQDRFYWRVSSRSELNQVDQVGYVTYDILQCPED
UniProt P03956, 100-469 limits assumed: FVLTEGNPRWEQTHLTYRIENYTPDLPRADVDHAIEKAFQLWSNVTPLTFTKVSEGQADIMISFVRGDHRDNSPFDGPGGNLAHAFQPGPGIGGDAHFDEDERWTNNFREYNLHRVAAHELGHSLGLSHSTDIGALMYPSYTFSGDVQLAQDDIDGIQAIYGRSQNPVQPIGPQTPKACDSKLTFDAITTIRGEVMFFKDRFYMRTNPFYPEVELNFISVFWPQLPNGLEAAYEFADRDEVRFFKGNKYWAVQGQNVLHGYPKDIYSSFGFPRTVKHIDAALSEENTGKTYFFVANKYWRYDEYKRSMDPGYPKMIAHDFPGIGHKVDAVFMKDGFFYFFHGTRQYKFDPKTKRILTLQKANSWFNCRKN
UniProt P08253, 110-660 limits assumed: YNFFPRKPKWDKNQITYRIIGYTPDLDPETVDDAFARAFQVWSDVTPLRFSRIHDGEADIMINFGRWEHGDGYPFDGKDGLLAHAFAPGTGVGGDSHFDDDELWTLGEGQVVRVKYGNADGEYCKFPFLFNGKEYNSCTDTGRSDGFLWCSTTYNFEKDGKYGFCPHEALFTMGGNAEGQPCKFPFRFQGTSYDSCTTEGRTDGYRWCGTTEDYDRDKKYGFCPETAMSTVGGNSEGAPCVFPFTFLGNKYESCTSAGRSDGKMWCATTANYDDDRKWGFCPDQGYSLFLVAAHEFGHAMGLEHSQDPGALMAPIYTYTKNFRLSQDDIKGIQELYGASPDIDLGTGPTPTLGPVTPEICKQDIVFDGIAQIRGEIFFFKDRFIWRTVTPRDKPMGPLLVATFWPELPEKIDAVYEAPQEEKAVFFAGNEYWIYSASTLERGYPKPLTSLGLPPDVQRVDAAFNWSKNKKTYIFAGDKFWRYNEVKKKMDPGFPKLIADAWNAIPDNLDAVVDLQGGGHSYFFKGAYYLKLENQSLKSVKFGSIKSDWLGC

How the values were obtained:
Assay type in all cases: biochemical
MMP-9 = MMP-9 (Homo sapiens, UniProt P14780); experiment: MMP-9 inhibition (in vitro Ki); settings: read-out: MMP-9 Ki; Table 8; tested form: HCl
MMP-1 = MMP-1 (Homo sapiens, UniProt P03956); experiment: MMP-1 inhibition (in vitro Ki); settings: read-out: MMP-1 Ki; Table 8; tested form: HCl
MMP-13 = MMP-13 (Homo sapiens, UniProt P45452); experiment: MMP-13 inhibition (in vitro Ki); settings: read-out: MMP-13 Ki; Table 8; tested form: HCl
MMP-2 = MMP-2 (Homo sapiens, UniProt P08253); experiment: MMP-2 inhibition (in vitro Ki); settings: read-out: MMP-2 Ki; Table 8; tested form: HCl
MMP-14 = MMP-14 (Homo sapiens, UniProt P50281); experiment: MMP-14 inhibition (in vitro Ki); settings: read-out: MMP-14 Ki; Table 8; tested form: HCl

## O=C(NO)C1(S(=O)(=O)N2CCC(c3ccc(CCC(F)(F)C(F)(F)F)cn3)CC2)CCCC1
MMP-9
  pKi: 9.89
MMP-1
  pKi: 5.79
MMP-13
  pKi: 10.22
MMP-2
  pKi: 9.57
MMP-14
  pKi: 6.15
